Some of the results follow. The source does not settle which construct or isoform was used.

The text below walks through data of article PMC7862700.

This test has as its target T1, ETS1 (UniProt P14921).
T1 sequence: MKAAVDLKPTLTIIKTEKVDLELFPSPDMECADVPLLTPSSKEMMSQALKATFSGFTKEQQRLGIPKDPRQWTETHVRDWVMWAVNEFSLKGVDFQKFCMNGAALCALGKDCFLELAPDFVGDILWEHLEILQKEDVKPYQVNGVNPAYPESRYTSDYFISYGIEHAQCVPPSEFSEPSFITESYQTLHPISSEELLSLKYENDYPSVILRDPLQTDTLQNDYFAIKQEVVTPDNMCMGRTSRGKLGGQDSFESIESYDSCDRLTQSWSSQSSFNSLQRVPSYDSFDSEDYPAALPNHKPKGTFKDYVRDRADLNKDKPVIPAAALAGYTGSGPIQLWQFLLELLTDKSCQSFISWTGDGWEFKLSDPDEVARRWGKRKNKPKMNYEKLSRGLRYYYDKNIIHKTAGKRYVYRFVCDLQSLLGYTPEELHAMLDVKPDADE
In words: DAPPL (digital affinity profiling via proximity ligation, sequencing). Particulars: 10 mM Tris-HCl pH 7.5, 50 mM NaCl, 1 mM DTT, 4% glycerol, room temperature, 30 min; GST-TFs on glutathione beads, 16-mer random dsDNA library, 0.1% …; high values mean tight binding; double strand, one strand shown; scale: fold enrichment (6-mer frequency, TF over GST control).
With GTTTCC, the binding signal came to 2.71.

As for TTCAAG, the binding signal came to 1.33. For the sequence AATTAG, the binding signal is 1.15. To CCCCGG belongs 1.28; to CCCTAA, 1.18; to TCTCGC, 1.63. For the sequence GCATTC, the binding signal was determined as 1.14. The sequence ATGGCT yielded a binding signal of 1.46. The value for TTCGTA was 1.4; that for AAAACA was 1.34. To ATTTGG belongs 1.37.

With AAGCTC, the binding signal came to 1.22. To ACTGCG belongs 1.15; to ATTTCA, 1.27; to GTCCCT, 1.21. The value for CATCTA was 1.23; that for ACAAGC was 1.19; that for GTATTA was 1.18. In turn, ATAGCT had a binding signal of 1.14. The value for GCAAAA was 1.11; that for TCTTTG was 1.14. The sequence CCATGC had a binding signal of 0.976. To TGCTAT belongs 1.44; to TAAAGT, 1.2.

The sequence TGCTCA came in with a binding signal of 1.29. The value for CTTGAC was 1.17.

As for TTGACC, the binding signal amounted to 1.49. To TGGCAG belongs 1.08; to GCTATA, 1.23. The value for AAGTCT was 1.21. TGATGG showed a binding signal of 1.43. The value for ATACCA was 1.05. To ATTGCT belongs 1.22; to TACTGA, 1.2; to CGAATA, 1.17. TCATTT yielded a binding signal of 1.37. To ATTACG belongs 1.08; to CCCGCA, 1.26; to GGTTTT, 1.1.
